From PubChem BioAssay AID2685 (National Center for Advancing Translational Sciences (NCATS), 2010) come the findings set out here.

The nature of this assay: qHTS Assay for Lipid Storage Modulators in Drosophila S3 Cells.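 For cell number change: cells counted by Cell Tracker Red CMTPX staining in the red channel.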 Particulars: BODIPY lipid droplet fluorescence, 18-24 h; for cell number change: measured here: cell count max response, cells fed with added oleic acid. A digest of the protocol:
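Laser-scanning cytometry quantifies lipid droplet accumulation (500–530 nm total intensity; droplet/cell object ratio) in oleic acid-fed (400 uM added) Drosophila S3 cells treated with a concentration series. 20 uM Triacsin C defined 100% inhibition.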

Setting [1] is: measured here: lipid fluorescence (Fed channel) AC50, cells fed with added oleic acid.
Setting [2] is: measured here: cell number channel AC50, cells fed with added oleic acid.

The other results are listed elsewhere or left out. These are further read-outs of the screen, such as a control signal, another cell line or another target. No call is given for them. The list favours compounds with an active or inconclusive main result. The note in brackets gives the kind of curve behind each potency; many fits are weak.

As to `Cc1ccc(S(=O)(=O)N2CCC(C(=O)NCc3ccncc3)CC2)cc1`, under setting [1], the AC50 was 6.51 µM [falling, single point].
For the compound `CCOC(=O)N1CCN(C(=O)c2ccc3c(c2)N(Cc2ccccc2)CCS3)CC1`, the cell number change is -11.5%. Besides, the AC50 under setting [1] is 4.11 µM [falling, single point].
In the case of `CCNc1nc(NC(C)(C)C)nc(N2CCCCC2)n1`, the cell number change is -35.9%. In addition, under setting [2], the AC50 was 1.64 µM [falling, full curve]. For the same compound, under setting [1], the AC50 is 1.84 µM [falling, full curve].
As to `COc1cccc(C(=O)NC(=S)Nc2ccccc2N2CCCCC2)c1`, the cell number change came to 50.9%. Under setting [2], the AC50 was 15.8 µM [rising, single point]. Further, the AC50 under setting [1] was 31.6 µM [rising, single point].
`O=C(c1cc(COc2c(F)cccc2F)on1)N1C[C@H]2CC[C@H]1C2`: the cell number change came out at 5.24%.
Same read-out and setting: the figure for `Cc1c(NC(=O)C(=O)N/N=C/c2cccs2)c(=O)n(-c2ccccc2)n1C` is -27.9%; for `COC(=O)CC1=C(C)C(=O)CC2C(C)(C)CCCC12C` (stereo not given) it is -24.1%.
`O=C(CSc1ccccc1)NCCCc1ccccc1`: the cell number change stood at 45.2%. Also, under setting [2], the AC50 is 32.6 µM [rising, single point]. The AC50 under setting [1] was 6.51 µM [falling, single point].
As to `COC(C[C@@H](O)C[C@@H](O)COCc1ccccc1)OC`, the cell number change is 16.8%. Besides, under setting [1], the AC50 was 4.11 µM [rising, full curve, poor fit].
On to `COc1cccc(C(=O)NCCN2CCN(c3ccc(Cl)cc3)CC2)c1`, for which the cell number change was found to be 2.15%. For the same compound, under setting [1], the half-maximal activity concentration (AC50) is 16.4 µM [rising, partial curve].
On to `O=C(O/N=C1\C(=O)N(c2ccccc2)c2ccccc21)C1CC1`, for which the cell number change was -17.5%.
As for `Cc1cc(C)c(NC(=O)CCCn2c(=O)oc3ccccc32)c(C)c1`, the cell number change was found to be 0.347%. Also, the AC50 under setting [1] is 29.1 µM [rising, single point].
Regarding `CCn1c(CNC(=O)c2ccco2)nnc1SCC(=O)Nc1cc(C(F)(F)F)ccc1Cl`, the AC50 was 1.46 µM [rising, partial curve, poor fit] under setting [2] and 1.64 µM [rising, partial curve] under setting [1].
For `CCOC(=O)NCc1ccccc1`, the cell number change came out at 8.98%. In addition, the AC50 under setting [1] is 29.1 µM [rising, single point].
As to `COc1cccc(NC(=O)[C@H](CC(C)C)NC(=O)[C@@H]2Cc3ccccc3CN2)c1`, the cell number change came out at 23.1%. Moreover, under setting [2], the AC50 was 0.517 µM [rising, full curve, poor fit]. Also, under setting [1], the AC50 was 6.51 µM [rising, single point].
For `CCOc1ccc(S(=O)(=O)N2CCN(c3ccccc3OC)CC2)c2cccnc12`, the cell number change was -10.1%.
For the compound `O=C(CN1N=C(c2ccccc2)CCC1=O)NCCN1CCc2ccccc2C1`, the cell number change was -13%. Further, the AC50 under setting [1] was 7.31 µM [rising, partial curve, poor fit].
In the case of `O=C(NCc1ccccc1)c1cccc(NC(=O)c2ccco2)c1`, the cell number change was 11.7%.
In the case of `Cn1nc(-c2ccccc2)c(CO)c1Sc1ccccc1`, the cell number change turned out to be 6.57%. In addition, the concentration at half-maximal activity (AC50) under setting [1] is 6.51 µM [rising, single point].
As to `Cc1nn(-c2ccccc2)c(Cl)c1/C=N/NC(=O)c1ccco1`, the cell number change was determined as 2.01%. Further, under setting [1], the concentration at half-maximal activity (AC50) is 0.00517 µM [rising, full curve, poor fit].
For `CCOc1ccc(NC(=O)CC2C(=O)N(c3ccc(OC)cc3)C(=O)N2CCc2cccs2)cc1` (stereo not given), the AC50 under setting [1] is 1.64 µM [rising, full curve].
As to `Cc1c(Cl)c([N+](=O)[O-])nn1CCCC(=O)O`, the cell number change was -27.7%. Besides, under setting [2], the AC50 was 0.164 µM [falling, full curve, poor fit]. In addition, the AC50 under setting [1] was 0.0651 µM [falling, full curve, poor fit].
For `CCOc1ccc(S(=O)(=O)N(C)c2ccc(OCC(=O)Nc3ccccc3F)cc2)cc1`, the cell number change came out at 1.58%. In addition, the AC50 under setting [1] was 0.00461 µM [falling, full curve, poor fit].
With `COc1cccc(CC(=O)N2CCC(n3nccc3NC(=O)C3CC3)CC2)c1`, the cell number change turned out to be 2.6%.
Turning to `CCOC(=O)c1cnc(SCC(=O)Nc2cc(OC)ccc2OC)nc1N`, the cell number change was 7.1%.
As for `COc1ccc(OCC(=O)Nc2ccc3c(c2)CCC3)cc1`, the cell number change is -0.0735%. In addition, the AC50 under setting [1] is 6.51 µM [falling, single point].
Take `COC(=O)CSc1nnc2c(C)cc3cc4c(cc3n12)OCCO4`: the cell number change was -1.94%. Moreover, the AC50 under setting [1] was 5.17 µM [rising, single point].
Regarding `Cc1ccc(-c2cc(C(=O)N3CCC(C)CC3)c3ccccc3n2)cc1`, the cell number change was -31.7%. Further, the AC50 under setting [2] is 0.231 µM [falling, full curve, poor fit].
On to `COc1ccc(/C=C2\Sc3ccc(C(=O)NCCN4CCCCCC4)cc3N(C)C2=O)cc1`, for which the cell number change came to 12.2%. Under setting [1], the half-maximal activity concentration (AC50) was 2.31 µM [rising, full curve].
For the compound `Cc1cc(C)c(-n2[nH]nnc2=S)c(C)c1`, the AC50 is 0.13 µM [falling, full curve, poor fit] under setting [2] and 0.092 µM [falling, full curve, poor fit] under setting [1].
As to `CCN(CC)S(=O)(=O)c1ccc2oc(SCC3CN=C(c4ccc(OC)cc4)S3)nc2c1` (stereo not given), the cell number change is -9.44%. In addition, under setting [1], the AC50 is 29.1 µM [rising, single point].
For `NC(=O)/C=C\C(=O)Nc1cccc(C(F)(F)F)c1`, the cell number change was determined as 26.4%. Also, under setting [1], the AC50 is 29.1 µM [rising, single point].
As for `O=[N+]([O-])c1ccc(NC(=S)NCc2ccc(F)cc2)cc1`, the cell number change is -61.8%. The AC50 under setting [2] is 13 µM [falling, partial curve]. Moreover, under setting [1], the AC50 was 10.3 µM [falling, partial curve].
As for `COc1ccc(C2CC(=O)C=C(NCC3CCCO3)C2)cc1` (stereo not given), the cell number change was determined as 9%. Further, the AC50 under setting [1] was 0.103 µM [rising, single point].
For `COc1ccc(NC(=O)C2(S(=O)(=O)c3ccc(C)cc3)CC2)cc1OC`, the cell number change stood at 6.67%. Also, the AC50 under setting [1] was 6.51 µM [rising, single point].
Regarding `COc1ccccc1-c1nnc(NC(=O)c2ccccc2F)o1`, the cell number change is -6.78%. Besides, under setting [1], the AC50 was 0.731 µM [falling, full curve, poor fit].
As to `COc1ccc(NC(=O)CN(C)CC(=O)c2[nH]c(C)c(C(C)=O)c2C)cc1`, the cell number change was -48.1%. For the same compound, the concentration at half-maximal activity (AC50) under setting [2] is 7.31 µM [falling, partial curve]. In addition, under setting [1], the AC50 was 6.51 µM [falling, partial curve].
Regarding `CCn1c(=O)n(CC(=O)NCc2ccccc2OC)c(=O)c2ccccc21`, the AC50 under setting [1] is 0.116 µM [falling, full curve, poor fit].
Turning to `COc1cc(NC(=O)c2ccc(Cl)cc2)c(OC)cc1NC(=O)CN1CCCCC1`, the cell number change is 23.7%.
On to `CCOC(=O)CSc1ccc2nnc(-c3cccnc3)n2n1`, for which the cell number change is 9.41%. Moreover, the AC50 under setting [1] was 0.13 µM [falling, full curve, poor fit].
For the compound `COc1cc(NC(=O)c2nccnc2N)cc(C(=O)Nc2cccc(C(F)(F)F)c2)c1`, the cell number change is -9.66%. Further, under setting [1], the AC50 is 0.411 µM [falling, single point].
In the case of `CC1Cc2ccccc2N1S(=O)(=O)c1cccc(C(=O)NCC(c2ccco2)N2CCCC2)c1` (stereo not given), the cell number change stood at 76%. In addition, the AC50 under setting [2] is 29.1 µM [rising, single point].
For `Cc1cc(C)nc(N/N=C/C2=C(N3CCOCC3)C(=C/c3ccccc3)/CC2)n1`, the cell number change turned out to be 22.3%. Under setting [2], the AC50 is 0.00411 µM [rising, full curve, poor fit]. Also, under setting [1], the concentration at half-maximal activity (AC50) is 10.3 µM [falling, partial curve].
Consider `CN(C)c1ccc(C(CNS(=O)(=O)c2ccc3ccccc3c2)c2c[nH]c3ccccc23)cc1` (stereo not given), for which the cell number change was -3.48%. For the same compound, the AC50 under setting [1] is 4.61 µM [falling, single point].
`O=C(Nc1nc2ccccc2n1CCN1CCCCC1)c1ccco1`: the cell number change came to 11.9%. Besides, the AC50 under setting [1] is 0.13 µM [falling, full curve, poor fit].
Consider `N#CCSc1ncnc2ccccc12`, for which the cell number change is 8.45%.
In the case of `Cc1ccc(S(=O)(=O)CC(=O)Nc2nnc(C)s2)cc1`, the cell number change came out at 5.42%. Further, under setting [1], the AC50 is 0.164 µM [rising, full curve, poor fit].
For `CN1CCN(C2=Cc3ccc(Cl)cc3Sc3ccc(F)cc32)CC1`, the cell number change was -82.9%. The half-maximal activity concentration (AC50) under setting [2] is 16.4 µM [falling, partial curve]. In addition, the half-maximal activity concentration (AC50) under setting [1] is 16.4 µM [falling, partial curve].
As to `COc1cc(Cl)c(CN2CCCC(CO)(Cc3ccccc3)C2)cc1OC` (stereo not given), the cell number change was -9.12%.
As to `CCCCC(=O)N/N=C/c1ccc(N2CCOCC2)c([N+](=O)[O-])c1`, the cell number change was determined as 19.4%. In addition, the AC50 under setting [1] is 10.3 µM [rising, single point].
As to `Cc1ccc(C)c(N2CCN(C(=O)C3CCN(S(=O)(=O)c4cccc5nsnc45)CC3)CC2)c1`, the cell number change was -7.47%. In addition, under setting [1], the AC50 is 1.64 µM [falling, partial curve].
With `O=C(N/N=C/c1cc([N+](=O)[O-])ccc1Cl)c1cc(-c2ccccc2)nc2ccccc12`, the AC50 under setting [1] is 0.103 µM [rising, full curve, poor fit].
With `COc1ccc(NC(=O)COC(=O)c2ccc(-n3nc(C)cc3C)cc2)cc1OC`, the cell number change is -9.73%. Moreover, the AC50 under setting [1] was 11.6 µM [rising, partial curve, poor fit].
`CC1CCCCC1NC(=O)COCc1cc(-c2cccs2)on1` (stereo not given): the cell number change was -39.9%. Besides, the AC50 under setting [2] is 0.0651 µM [falling, full curve, poor fit]. In addition, the concentration at half-maximal activity (AC50) under setting [1] is 29.1 µM [falling, single point].
On to `O=C(NCc1ccco1)C1Cc2cc(Cl)ccc2O1` (stereo not given), for which the cell number change amounted to 16.7%. For the same compound, the concentration at half-maximal activity (AC50) under setting [1] is 29.1 µM [rising, single point].
`CN(C(=O)CN1CCCCCC1)c1c(N)n(Cc2ccccc2)c(=O)[nH]c1=O`: under setting [1], the AC50 was 29.1 µM [rising, single point].
Take `O=[N+]([O-])c1ccccc1S(=O)(=O)Nc1ccc(S(=O)(=O)Nc2nccs2)cc1`: the cell number change came out at 28.9%.
With `CCc1ccc(/C=c2\s/c(=C\C(=O)C(C)(C)C)[nH]c2=O)cc1`, the cell number change was -91.9%. Besides, the AC50 under setting [2] was 13 µM [falling, partial curve].
For `O=C1CCCCCN1CP(=O)(O)CN1CCCCCC1=O`, the cell number change is -23.6%. The AC50 under setting [1] is 3.26 µM [falling, full curve].
On to `O=C1NCC2=C1C(c1ccccc1)Nc1ccccc1N2` (stereo not given), for which the cell number change is -24%. For the same compound, the AC50 under setting [1] is 4.61 µM [falling, full curve, poor fit].
`CCOC(=O)C1=C(c2ccccc2)O/C(=C(/C#N)C(F)(F)F)S1`: the cell number change came to 3.57%. In addition, the half-maximal activity concentration (AC50) under setting [1] was 2.59 µM [rising, partial curve].
